Values of other authors as cited in patent US20090203763A1, “SUBSTITUTED BENZHYDRYLETHERS” (AUSPEX PHARMACEUTICALS, INC., priority 2008, published 2009).

Sequences of proteins named here, by UniProt entry; tags and fusion partners are left off.
UniProt P10635, whole entry: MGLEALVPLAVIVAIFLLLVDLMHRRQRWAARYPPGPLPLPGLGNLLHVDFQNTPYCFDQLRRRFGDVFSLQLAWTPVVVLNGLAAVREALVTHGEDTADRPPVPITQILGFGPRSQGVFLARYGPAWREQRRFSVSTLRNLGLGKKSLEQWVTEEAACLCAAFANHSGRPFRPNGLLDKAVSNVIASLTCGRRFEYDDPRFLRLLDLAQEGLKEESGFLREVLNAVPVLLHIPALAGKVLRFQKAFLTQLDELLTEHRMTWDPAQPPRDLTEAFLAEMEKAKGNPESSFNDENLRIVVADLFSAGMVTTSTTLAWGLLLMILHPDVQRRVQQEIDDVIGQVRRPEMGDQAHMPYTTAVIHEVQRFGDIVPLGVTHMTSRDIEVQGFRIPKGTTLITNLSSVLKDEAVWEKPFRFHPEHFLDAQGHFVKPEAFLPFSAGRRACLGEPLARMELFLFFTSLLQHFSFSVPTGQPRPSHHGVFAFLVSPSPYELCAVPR

Target: P450 cytochrome CYP2D6 (Homo sapiens, UniProt P10635)
Conditions: Hamelin et al. 1998; cited from earlier work

**Q.** With CN1CCC[C@@H]1CCO[C@](C)(c1ccccc1)c1ccc(Cl)cc1 [Clemastine, 2-[2-[1-(4-chlorophenyl)-1-phenyl-ethoxy]ethyl]-1-methyl-pyrrolidine] as the molecule, how does the “inhibition of CYP2D6” value read?
**A.** potent inhibitor
